Values of other authors, collected in publication PMC6195125 (European journal of medicinal chemistry, 2018).

Tested on: mammalian cell
Details: read-out: Cytotoxicity IC50; cited from earlier work

O=C(CCCCCCC(=O)Nc1ccccc1)NO [SAHA, suberoylanilide hydroxamic acid]
IC50: 5.17 to 5.5 µM
